Assay results as given in patent publication US11946094B2, “Combination therapies and methods of use thereof” (Augusta University Research Institute, Inc., priority 2017, dated 2024).

System: OVCAR-8 cells
Assay: Drug-siRNA combination screen: 346-compound anticancer library at 100 nM, CCK-8 viability

COC(=O)[C@H](CCCN=C(N)N)NS(=O)(=O)c1ccc(C)cc1 [TAME]
Score (sum of observed SD values for 18 genes): −1.98 SD
